This is an account of results in the supplement of paper PMC11006884.

Protein sequences, listed by entry. Tags and fused reporters are not part of them. Lines headed by an entry give the natural chain unless they say otherwise; changes in a name come on top.
UniProt Q9BZV1: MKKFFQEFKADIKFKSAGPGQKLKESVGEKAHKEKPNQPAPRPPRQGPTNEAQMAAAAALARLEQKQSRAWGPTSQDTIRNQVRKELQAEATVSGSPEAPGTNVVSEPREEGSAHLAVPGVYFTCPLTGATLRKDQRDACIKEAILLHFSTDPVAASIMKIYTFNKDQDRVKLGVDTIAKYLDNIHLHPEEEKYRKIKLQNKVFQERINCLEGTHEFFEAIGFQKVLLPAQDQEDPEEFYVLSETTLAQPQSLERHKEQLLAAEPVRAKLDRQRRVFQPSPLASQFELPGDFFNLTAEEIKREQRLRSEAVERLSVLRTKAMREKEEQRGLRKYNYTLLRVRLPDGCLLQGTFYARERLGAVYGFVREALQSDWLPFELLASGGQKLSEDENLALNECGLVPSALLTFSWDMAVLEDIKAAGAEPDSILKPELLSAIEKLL
UniProt Q9GZR7: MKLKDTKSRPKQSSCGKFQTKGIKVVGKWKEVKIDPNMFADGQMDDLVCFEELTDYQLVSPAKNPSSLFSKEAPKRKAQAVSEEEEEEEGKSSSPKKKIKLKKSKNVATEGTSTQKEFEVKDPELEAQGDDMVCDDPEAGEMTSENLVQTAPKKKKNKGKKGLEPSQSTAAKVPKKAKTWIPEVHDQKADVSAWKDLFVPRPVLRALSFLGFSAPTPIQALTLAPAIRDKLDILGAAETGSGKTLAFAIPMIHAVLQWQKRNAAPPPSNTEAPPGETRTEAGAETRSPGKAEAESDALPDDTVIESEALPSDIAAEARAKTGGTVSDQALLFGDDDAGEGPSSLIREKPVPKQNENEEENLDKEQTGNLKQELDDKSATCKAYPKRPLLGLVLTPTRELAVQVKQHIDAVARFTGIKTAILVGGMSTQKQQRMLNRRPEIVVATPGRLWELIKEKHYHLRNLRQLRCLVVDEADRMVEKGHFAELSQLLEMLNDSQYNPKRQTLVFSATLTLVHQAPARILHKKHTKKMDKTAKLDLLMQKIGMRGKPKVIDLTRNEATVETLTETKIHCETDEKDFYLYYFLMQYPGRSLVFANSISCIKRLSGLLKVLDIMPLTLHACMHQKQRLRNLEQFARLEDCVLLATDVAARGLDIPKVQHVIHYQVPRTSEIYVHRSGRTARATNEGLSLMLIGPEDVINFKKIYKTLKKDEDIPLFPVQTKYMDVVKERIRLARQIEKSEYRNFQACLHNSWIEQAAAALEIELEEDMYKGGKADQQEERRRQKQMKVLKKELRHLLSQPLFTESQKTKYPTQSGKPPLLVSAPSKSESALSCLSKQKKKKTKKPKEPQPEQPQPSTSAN
UniProt Q9BV57: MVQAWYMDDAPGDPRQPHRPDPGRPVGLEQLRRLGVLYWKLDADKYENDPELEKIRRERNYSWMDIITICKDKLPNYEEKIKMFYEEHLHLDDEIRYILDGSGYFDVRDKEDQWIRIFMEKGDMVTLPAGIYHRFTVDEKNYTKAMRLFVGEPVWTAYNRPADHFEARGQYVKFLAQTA
UniProt Q9C0C2: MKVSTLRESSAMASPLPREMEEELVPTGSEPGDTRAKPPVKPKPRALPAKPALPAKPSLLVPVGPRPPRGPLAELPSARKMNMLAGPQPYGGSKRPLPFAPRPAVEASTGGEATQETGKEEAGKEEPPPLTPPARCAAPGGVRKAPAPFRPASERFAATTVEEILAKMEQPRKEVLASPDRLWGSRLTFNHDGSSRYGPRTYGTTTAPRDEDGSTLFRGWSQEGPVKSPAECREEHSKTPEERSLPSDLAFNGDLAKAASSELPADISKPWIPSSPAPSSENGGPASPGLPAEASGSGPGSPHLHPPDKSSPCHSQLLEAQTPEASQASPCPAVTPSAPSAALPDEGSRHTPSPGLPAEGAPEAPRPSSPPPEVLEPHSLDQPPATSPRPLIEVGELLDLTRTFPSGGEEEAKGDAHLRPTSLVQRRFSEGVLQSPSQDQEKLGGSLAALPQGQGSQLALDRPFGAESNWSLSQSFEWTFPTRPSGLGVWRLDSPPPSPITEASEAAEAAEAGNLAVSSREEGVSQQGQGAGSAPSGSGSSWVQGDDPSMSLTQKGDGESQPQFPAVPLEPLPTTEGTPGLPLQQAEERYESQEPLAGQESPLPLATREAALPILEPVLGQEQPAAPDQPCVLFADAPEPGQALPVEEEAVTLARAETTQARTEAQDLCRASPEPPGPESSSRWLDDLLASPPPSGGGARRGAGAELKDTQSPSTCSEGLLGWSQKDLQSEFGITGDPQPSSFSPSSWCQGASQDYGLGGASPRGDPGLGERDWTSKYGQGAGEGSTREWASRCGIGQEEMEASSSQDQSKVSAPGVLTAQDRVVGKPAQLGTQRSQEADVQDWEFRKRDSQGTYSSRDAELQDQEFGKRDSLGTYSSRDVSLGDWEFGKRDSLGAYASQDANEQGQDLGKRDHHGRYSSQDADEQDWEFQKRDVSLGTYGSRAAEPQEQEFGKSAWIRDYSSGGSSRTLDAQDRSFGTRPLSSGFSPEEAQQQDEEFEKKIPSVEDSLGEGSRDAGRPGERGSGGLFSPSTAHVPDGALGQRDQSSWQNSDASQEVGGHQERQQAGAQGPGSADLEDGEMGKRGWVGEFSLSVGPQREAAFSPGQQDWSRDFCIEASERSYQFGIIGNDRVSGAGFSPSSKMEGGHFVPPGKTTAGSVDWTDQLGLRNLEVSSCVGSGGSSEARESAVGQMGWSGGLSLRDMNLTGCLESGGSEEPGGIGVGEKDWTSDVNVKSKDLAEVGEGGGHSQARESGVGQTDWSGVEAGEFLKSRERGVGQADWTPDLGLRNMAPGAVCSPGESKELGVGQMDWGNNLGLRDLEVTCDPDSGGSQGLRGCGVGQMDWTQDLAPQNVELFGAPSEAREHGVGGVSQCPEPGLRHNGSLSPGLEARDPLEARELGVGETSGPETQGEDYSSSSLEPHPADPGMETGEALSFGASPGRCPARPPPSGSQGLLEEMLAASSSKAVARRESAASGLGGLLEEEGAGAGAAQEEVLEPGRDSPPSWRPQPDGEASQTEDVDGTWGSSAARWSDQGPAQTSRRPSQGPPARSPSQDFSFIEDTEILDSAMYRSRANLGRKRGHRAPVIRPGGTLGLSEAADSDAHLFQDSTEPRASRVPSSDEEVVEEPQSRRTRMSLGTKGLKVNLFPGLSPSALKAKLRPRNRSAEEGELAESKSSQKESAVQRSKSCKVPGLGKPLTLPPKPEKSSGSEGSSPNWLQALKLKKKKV
UniProt Q9BV86: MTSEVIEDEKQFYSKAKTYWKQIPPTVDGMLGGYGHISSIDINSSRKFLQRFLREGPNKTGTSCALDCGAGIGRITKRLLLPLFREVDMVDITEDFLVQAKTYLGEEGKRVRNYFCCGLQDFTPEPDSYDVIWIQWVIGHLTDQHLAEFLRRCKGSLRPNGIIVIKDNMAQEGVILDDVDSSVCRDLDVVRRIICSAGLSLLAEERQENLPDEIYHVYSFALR
UniProt Q9BTX1: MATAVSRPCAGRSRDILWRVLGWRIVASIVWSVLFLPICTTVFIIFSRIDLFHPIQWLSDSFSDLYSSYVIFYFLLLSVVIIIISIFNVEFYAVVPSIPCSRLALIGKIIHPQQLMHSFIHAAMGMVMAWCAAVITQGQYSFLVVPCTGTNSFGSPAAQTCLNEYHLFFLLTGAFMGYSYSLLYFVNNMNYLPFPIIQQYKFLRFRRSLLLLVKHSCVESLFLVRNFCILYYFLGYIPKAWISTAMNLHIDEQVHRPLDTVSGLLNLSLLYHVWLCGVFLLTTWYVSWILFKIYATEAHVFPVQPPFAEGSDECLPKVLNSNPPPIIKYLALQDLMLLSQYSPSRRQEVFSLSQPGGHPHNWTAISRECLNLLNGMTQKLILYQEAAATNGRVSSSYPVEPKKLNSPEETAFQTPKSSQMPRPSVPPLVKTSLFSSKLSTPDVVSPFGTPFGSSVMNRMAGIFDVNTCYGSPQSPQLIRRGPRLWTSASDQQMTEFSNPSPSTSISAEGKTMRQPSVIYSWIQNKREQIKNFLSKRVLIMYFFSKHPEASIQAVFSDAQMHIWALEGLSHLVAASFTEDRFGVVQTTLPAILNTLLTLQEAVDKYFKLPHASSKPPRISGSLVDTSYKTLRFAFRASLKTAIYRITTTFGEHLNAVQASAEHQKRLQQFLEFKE
UniProt Q9BVP2: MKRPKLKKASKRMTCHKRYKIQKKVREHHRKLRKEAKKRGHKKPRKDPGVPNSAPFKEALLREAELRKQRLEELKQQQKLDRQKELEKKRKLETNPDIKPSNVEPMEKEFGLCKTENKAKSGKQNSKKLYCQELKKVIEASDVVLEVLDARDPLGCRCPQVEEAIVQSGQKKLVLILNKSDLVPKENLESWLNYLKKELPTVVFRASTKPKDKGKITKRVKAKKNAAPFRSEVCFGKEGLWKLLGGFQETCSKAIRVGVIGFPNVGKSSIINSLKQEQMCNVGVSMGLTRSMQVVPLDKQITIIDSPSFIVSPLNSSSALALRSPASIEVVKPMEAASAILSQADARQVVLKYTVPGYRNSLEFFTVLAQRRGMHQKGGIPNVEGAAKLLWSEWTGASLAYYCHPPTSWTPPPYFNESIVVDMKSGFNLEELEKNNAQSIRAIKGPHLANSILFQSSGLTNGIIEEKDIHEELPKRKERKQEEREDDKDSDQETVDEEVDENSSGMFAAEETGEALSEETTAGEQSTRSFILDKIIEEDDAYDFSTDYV
UniProt Q9BZD4: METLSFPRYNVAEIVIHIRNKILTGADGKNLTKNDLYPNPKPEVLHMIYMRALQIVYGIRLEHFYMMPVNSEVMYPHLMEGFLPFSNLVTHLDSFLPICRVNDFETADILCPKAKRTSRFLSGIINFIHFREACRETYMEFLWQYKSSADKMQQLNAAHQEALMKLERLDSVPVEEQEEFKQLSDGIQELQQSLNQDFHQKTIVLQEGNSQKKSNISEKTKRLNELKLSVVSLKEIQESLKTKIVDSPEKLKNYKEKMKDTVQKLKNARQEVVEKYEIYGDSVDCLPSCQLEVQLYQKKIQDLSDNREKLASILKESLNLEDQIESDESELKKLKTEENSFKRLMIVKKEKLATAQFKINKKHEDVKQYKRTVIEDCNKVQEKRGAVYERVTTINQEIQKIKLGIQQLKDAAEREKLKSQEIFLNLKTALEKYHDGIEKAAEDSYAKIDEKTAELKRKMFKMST
UniProt Q9BZF9: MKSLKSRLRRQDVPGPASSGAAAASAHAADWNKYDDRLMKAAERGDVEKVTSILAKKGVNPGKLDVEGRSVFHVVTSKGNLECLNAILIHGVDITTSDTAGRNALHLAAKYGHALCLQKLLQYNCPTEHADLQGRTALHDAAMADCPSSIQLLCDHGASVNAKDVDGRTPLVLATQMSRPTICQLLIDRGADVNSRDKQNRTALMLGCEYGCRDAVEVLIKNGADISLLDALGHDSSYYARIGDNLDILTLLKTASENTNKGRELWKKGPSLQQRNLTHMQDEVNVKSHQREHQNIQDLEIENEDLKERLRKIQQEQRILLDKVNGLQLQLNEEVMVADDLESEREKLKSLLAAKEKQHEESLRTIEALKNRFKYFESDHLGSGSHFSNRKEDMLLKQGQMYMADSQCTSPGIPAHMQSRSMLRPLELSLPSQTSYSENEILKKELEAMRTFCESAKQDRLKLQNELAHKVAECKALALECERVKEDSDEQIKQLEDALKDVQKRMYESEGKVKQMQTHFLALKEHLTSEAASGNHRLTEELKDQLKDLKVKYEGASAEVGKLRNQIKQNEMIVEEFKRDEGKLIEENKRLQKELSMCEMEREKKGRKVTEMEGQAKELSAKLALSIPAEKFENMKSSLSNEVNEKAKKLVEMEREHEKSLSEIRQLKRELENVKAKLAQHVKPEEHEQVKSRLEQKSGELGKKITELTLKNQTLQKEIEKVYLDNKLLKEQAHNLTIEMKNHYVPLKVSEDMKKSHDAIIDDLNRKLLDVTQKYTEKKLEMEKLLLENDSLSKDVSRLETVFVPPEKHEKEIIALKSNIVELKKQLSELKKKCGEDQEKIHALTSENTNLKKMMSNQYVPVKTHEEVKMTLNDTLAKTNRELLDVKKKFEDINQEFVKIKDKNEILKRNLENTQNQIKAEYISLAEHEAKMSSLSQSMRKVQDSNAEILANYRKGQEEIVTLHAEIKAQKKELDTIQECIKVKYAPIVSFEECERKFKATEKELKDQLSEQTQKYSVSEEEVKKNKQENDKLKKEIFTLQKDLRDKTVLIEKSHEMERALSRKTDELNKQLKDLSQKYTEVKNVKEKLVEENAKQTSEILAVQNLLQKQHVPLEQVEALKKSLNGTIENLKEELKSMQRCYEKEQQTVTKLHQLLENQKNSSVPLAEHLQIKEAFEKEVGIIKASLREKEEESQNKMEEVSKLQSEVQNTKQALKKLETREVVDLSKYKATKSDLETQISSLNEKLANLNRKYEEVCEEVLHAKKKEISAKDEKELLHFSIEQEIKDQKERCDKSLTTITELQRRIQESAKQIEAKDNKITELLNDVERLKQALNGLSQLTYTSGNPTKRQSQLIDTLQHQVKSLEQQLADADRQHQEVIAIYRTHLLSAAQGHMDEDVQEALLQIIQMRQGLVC

This is a selection; strong and weak results do not stand in their true shares.

Compound in this assay: COC(=O)C#Cc1ccccc1 [methyl 3-phenylpropiolate]
As to the kind of experiment: log2 ratio of iodoacetamide-alkyne labeling of the cysteine site, DMSO over compound (competition); higher = stronger covalent engagement of the cysteine by the compound, active = 1 or more. The following applies: 500 µM; treatment time 1 h; system: HEK293T cell lysate. An outline of the steps: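 For each cysteine, the log2 competition ratio is mean control-channel reporter intensity over mean compound-channel reporter intensity. HEK293T lysate (2 mg/mL) was exposed to vehicle or electrophile (500 µM, 1 h, ambient temperature), labelled with iodoacetamide alkyne (1 h), clicked to sCIP-TMT reagents, digested overnight with trypsin at 37 °C, streptavidin-enriched and analysed by Orbitrap Eclipse LC-MS/MS with FAIMS and FragPipe. Cysteines quantified in only one of three replicates, each with duplicate channels, were excluded.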
UBXN6 C125 (UniProt Q9BZV1): the “log2 ratio of iodoacetamide-alkyne labeling” value (“log2 ratio” for short) is inactive: 0.728.

For the target TBCD C1192 (UniProt Q9BTW9), the “log2 ratio” value was inactive: 0.0257.

Regarding NOC4L C509 (UniProt Q9BVI4), the “log2 ratio” value is inactive: 0.396.

Take UniProt Q9BUH6_C180: the “log2 ratio” value was inactive: 0.883.

COPS4 C378 (UniProt Q9BT78): the “log2 ratio” value was inactive: 0.312.

In the case of ACTR6 C28 (UniProt Q9GZN1), the “log2 ratio” value is inactive: 0.277.

Consider FYCO1 C882 (UniProt Q9BQS8), for which the “log2 ratio” value is inactive: 0.192.

In the case of TRMT61B C143 (UniProt Q9BVS5), the “log2 ratio” value was inactive: 0.598.

As for EFHD1 C8 (UniProt Q9BUP0), the “log2 ratio” value is inactive: 0.546.

As for XPO4 C1149 (UniProt Q9C0E2), the “log2 ratio” value was inactive: 0.048.

For the target DDX24 C49 (UniProt Q9GZR7), the “log2 ratio” value is inactive: 0.148.

On to ADI1 C70 (UniProt Q9BV57), for which the “log2 ratio” value was inactive: 0.0326.

Regarding MED28 C80 (UniProt Q9H204), the “log2 ratio” value is inactive: 0.36.

Regarding XRN2 C736 (UniProt Q9H0D6), the “log2 ratio” value was inactive: 0.0826.

On to UniProt Q9BWC9_C250, for which the “log2 ratio” value is inactive: 0.457.

PDCD2L C278 (UniProt Q9BRP1): the “log2 ratio” value is inactive: 0.0309.

In the case of UniProt Q9BSD7_C184, the “log2 ratio” value was inactive: 0.0623.

Turning to UniProt Q9BXP5_C479, the “log2 ratio” value is inactive: 0.0385.

Regarding TNKS1BP1 C794 (UniProt Q9C0C2), the “log2 ratio” value is inactive: 0.704.

With UniProt Q9BV86_C195, the “log2 ratio” value is inactive: 0.00457.

As to UniProt Q9BTX1_C369, the “log2 ratio” value is inactive: 0.121.

In the case of UniProt Q9BQI3_C466, the “log2 ratio” value is inactive: 0.178.

For the target TBCD C1175 (UniProt Q9BTW9), the “log2 ratio” value is inactive: 0.204.

Consider EDEM3 C82 (UniProt Q9BZQ6), for which the “log2 ratio” value was inactive: 0.448.

For DIDO1 C976 (UniProt Q9BTC0), the “log2 ratio” value was inactive: 0.77.

Turning to UniProt Q9BYV8_C171, the “log2 ratio” value is inactive: 0.361.

In the case of GNL3 C158 (UniProt Q9BVP2), the “log2 ratio” value was inactive: 0.482.

In the case of COPS4 C70 (UniProt Q9BT78), the “log2 ratio” value is inactive: 0.101.

With TNKS1BP1 C232 (UniProt Q9C0C2), the “log2 ratio” value is inactive: 0.444.

Consider UniProt Q9BXJ9_C214, for which the “log2 ratio” value is inactive: 0.2.

For the target XRN2 C62 (UniProt Q9H0D6), the “log2 ratio” value was inactive: -0.1.

As to UniProt Q9GZT3_C48, the “log2 ratio” value was inactive: -0.0934.

Take NUF2 C377 (UniProt Q9BZD4): the “log2 ratio” value was inactive: 0.325.

For UniProt Q9BSH4_C112, the “log2 ratio” value was inactive: -0.152.

As for RBM4 C107 (UniProt Q9BWF3), the “log2 ratio” value was inactive: -0.185.

With TNKS1BP1 C1175 (UniProt Q9C0C2), the “log2 ratio” value is inactive: 0.568.

For UACA C994 (UniProt Q9BZF9), the “log2 ratio” value was inactive: 0.315.
